Source: patent US11400106B2, “Methods for inhibiting microbe growth” (priority 2018, dated 2022)

How the values were obtained:
[1] = tested on: E. coli; type: cell-based, Escherichia coli
Procedure: (§1) In the following experiments, bacterial cells were cultured in 96-well microtiter plates in cation-adjusted Mueller-Hinton Broth (MHB) for 18 h at 37° C. The main strains used were E. coli (K-12 BW25113) (placed in stationary incubator) and S. aureus (Newman Strain) (incubated at 250 r.p.m). Knockout strains (ΔtolcC and ΔychM) were used from the Keio knockout collection (Baba et al., Construction of Escherichia coli K-12 in-frame, single-gene knockout mutants: the Keio collection. Mol Syst Biol 2, 2006 0008, doi:10.1038/msb4100050 (2006)). For MIC determination and checkerboard analyses, Clinical & Laboratory Standards Institute (CLSI) protocol was used. […] DiSC3 loading of S. aureus cells was performed as previously described (Farha et al., Collapsing the proton motive force to identify synergistic combinations against Staphylococcus aureus. Chemistry & biology 20, 1168-1178, doi:10.1016/j.chembiol.2013.07.006 (2013)). CCCP concentration of 20 μM was used. pH adjustments were made by addition of HCl or NaOH. INT assay and ATP bioluminescence assays were performed as previously described (Farha et al., Collapsing the proton motive force to identify synergistic combinations against Staphylococcus aureus. Chemistry & biology 20, 1168-1178, doi:10.1016/j.chembiol.2013.07.006 (2013)). For chemical-genomic studies, the Keio library was grown overnight in cation-adjusted MHB broth, in 384-well plates. From these, treatment plates (25 mM sodium bicarbonate, or a sterile water control) were inoculated and grown for 15 hours at 37° C., in a stationary incubator. Data was normalized according to Mangat et al (Mangat et al., Rank ordering plate data facilitates data visualization and normalization in high-throughput screening. J Biomol Screen 19, 1314-1320, doi:10.1177/1087057114534298 (2014)), with gene products and GO terms mined from EcoCyc. The GFP promoter library (Keseler et al., EcoCyc: fusing model organism databases with systems biology. Nucleic Acids Res 41, D605-612, doi:10.1093/nar/gks1027 (2013)) was grown for 18 hours at ambient temperature with the same inoculation strategy as with the Keio collection. The analysis pipeline of Zaslaver et al (Zaslaver et al., A comprehensive library of fluorescent transcriptional reporters for Escherichia coli. Nat Methods 3, 623-628, doi:10.1038/nmeth895 (2006)) was used to generate maps of promoter activity, from which lists of promoters with increased or decreased activity were compiled.
(§2) Fold enhancement in MICs in the media supplemented with sodium bicarbonate is represented by a positive fold, whereas suppression of activity is represented by a negative fold.
(§3) The effect of sodium bicarbonate on the activity of additional antibacterial agents was investigated. […]

[2] = tested on: S. aureus
Procedure: as §1, §2, §3

Row | Structure (SMILES) | MIC, E. coli, MHB [1] | MIC, E. coli, MHB+ [1] | MIC, S. aureus, MHB [2] | MIC, S. aureus, MHB+ [2]
1 | CC(C)(C)CC(C)(C)c1ccc(OCCOCC[N+](C)(C)Cc2ccccc2)cc1 [Benzethonium chloride] | 64 μg of antimicrobial agent/mL of buffer | 32 μg of antimicrobial agent/mL of buffer | 1 μg of antimicrobial agent/mL of buffer | 0.5 μg of antimicrobial agent/mL of buffer
2 | CCCCCCCCCCCCCCCC[n+]1ccccc1 [Cetylpyridinium chloride] | 16 μg of antimicrobial agent/mL of buffer | 4 μg of antimicrobial agent/mL of buffer | 0.125 μg of antimicrobial agent/mL of buffer | 0.0156 μg of antimicrobial agent/mL of buffer
